Four substances from paper PMC8866402 can be followed below.

These are yes or no findings as the source states them, for the method shown. Binding can be weak; no strength is given. Sequences can lack the tags named with a protein. For part of these data: In cells and extracts the contact can be indirect.

In assay [1] the target is T1, recombinant human Flag-tagged fortilin (human) (UniProt P13693).
T1 sequence: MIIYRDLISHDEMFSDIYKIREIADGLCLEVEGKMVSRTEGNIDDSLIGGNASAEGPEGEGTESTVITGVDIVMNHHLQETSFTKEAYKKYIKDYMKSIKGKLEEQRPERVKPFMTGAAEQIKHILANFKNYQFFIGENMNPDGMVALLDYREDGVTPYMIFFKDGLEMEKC
Briefly: co-IP; in vitro mixture of recombinant Flag-fortilin, TGF-β1, Flag-p53 and His6-NQO2 in Buffer A (10 mM Tris pH 7.4, 100 mM NaCl, 0.01% NP-40); rabbit anti-fortilin mAb or rabbit IgG, 2 h room temperature; anti-rabbit IgG Dynabeads; four washes in Buffer B (0.3% NP-40); western blot; both purified.

The next assay concerns the target T2, C-His6-fortilin (human) (UniProt P13693).
T2 sequence: T1 sequence
Nature of the assay: SPR; Biacore 3000, 25 °C, HBS-EPS (0.01 M HEPES, 0.5 M NaCl, 3 mM EDTA, 0.005% Tween 20, pH 7.4), 20 μL/min; forms of rh-fortilin amine-coupled to a CM5 chip; rh-TGF-β1 injected (0 to 200 nM; 100 nM for scouting); both purified.

In assay [2] the target is T3, strep-tag-fortilin (recombinant human fortilin with an N-terminal Strep-tag II) (human) (UniProt P13693).
T3 sequence: T1 sequence
The description is as above.

The next assay deals with T4, N-His6-fortilin (human) (UniProt P13693).
T4 sequence: T1 sequence
Briefly: SPR; co-binding/inhibition assay: 100 nM rh-TGF-β1 pre-incubated with increasing concentrations of TGFβRII-Fc (or with Fc) and injected over the fortilin-coupled chip; Fc injected alone as control; Biacore 3000, 25 °C, HBS-EPS; both purified.

Assay [3] concerns the target T1, recombinant human Flag-tagged fortilin (human). Nature of the assay: co-IP; same procedure with recombinant Flag-fortilin, TGF-β2 or TGF-β3 and His6-NQO2; anti-fortilin mAb or IgG; five washes in Buffer B; western blot; both purified. On the technique in general: A western blot detects proteins with antibodies after separation by electrophoresis.

For “recombinant human TGF-β1 (eBioscience) (ligand)”, the binding entry in assay [1] is on record as “binds”.

“recombinant human TGF-β1 produced in-house (ligand)”: the binding entry (in the assay with C-His6-fortilin (human); in assay [2]; in the assay with N-His6-fortilin (human)) was “binds” throughout.

For recombinant human TGF-β2 (ligand), in assay [3], the binding result is “binds”.

Turning to recombinant human TGF-β3 (ligand), in assay [3], the binding entry is recorded as “binds”.
